The other results are listed elsewhere or left out.
Target: OsWRKY34 (Oryza sativa, UniProt Q0JBA9 1-250)
Experiment: protein-binding microarray (RPBM); PBS, 2% BSA, 51.3 ng/ul salmon testes DNA, 50 uM zinc acetate, 200 nM TF, 25 C, 1 h; high values mean tight binding
Details: protein: recombinant; tags: N-terminal polyhistidine and DsRed monomer fusion (pET32a); label: CyDye5-dUTP incorporated in the synthesized complementary strand; 3' TTTTT single-stranded linker to array surface; dsDNA, one strand shown
How it was run: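 The binding signal is fluorescence intensity per feature, in arbitrary units, read on an Axon 4000B scanner. Polyhistidine- and DsRed-tagged transcription factors (N-terminal fusions) from E. coli BL21-CodonPlus were purified on Ni–NTA and applied at 200 nM for 1 h at 25 °C to a double-stranded, BSA-blocked custom Agilent array in buffer with 50 µM zinc acetate.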

Sequences of proteins named here, by UniProt entry; tags and fusion partners are left off.
UniProt Q0JBA9, entry or part of it: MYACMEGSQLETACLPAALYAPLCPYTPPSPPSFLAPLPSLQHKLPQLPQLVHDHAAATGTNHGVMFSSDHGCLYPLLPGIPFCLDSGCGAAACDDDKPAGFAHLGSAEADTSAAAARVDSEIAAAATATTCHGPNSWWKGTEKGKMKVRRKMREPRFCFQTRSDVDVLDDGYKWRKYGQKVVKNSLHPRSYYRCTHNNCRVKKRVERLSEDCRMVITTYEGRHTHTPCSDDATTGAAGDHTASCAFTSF

| Sequence | binding signal |
| --- | --- |
| GCAGGTAGACAAAACCATTACACGGTCAGAGATAAATTTTCGGAGTCACCTAGTGCAG | 8080 fluorescence intensity (a.u.) |
| AAACCCTAACCCTAGCTCCCCAATCCGCCCGTTCCGGCCACGGAGTCACCTAGTGCAG | 8810 fluorescence intensity (a.u.) |
| CTCAGGTCCCATCTGTCAGTCTCTCTTCAGCTTGCCATATCGGAGTCACCTAGTGCAG | 10300 fluorescence intensity (a.u.) |
| ACTACTTGTTACTGTACTAATACATTCCTTTTTCTTTTCGCGGAGTCACCTAGTGCAG | 9130 fluorescence intensity (a.u.) |
| AGATCCATTTTTTTCTTTTCTTTTCACCCTAATTCTGAGTCGGAGTCACCTAGTGCAG | 8310 fluorescence intensity (a.u.) |
| CCGGCCTCCATTGATCACCACCCCGACGCCTTCGTCCAGGCGGAGTCACCTAGTGCAG | 8540 fluorescence intensity (a.u.) |
| GCCTCCACTGCCGCCACGAGAGCCGAACCACGCAGACCTACGGAGTCACCTAGTGCAG | 8200 fluorescence intensity (a.u.) |
| CCATGTTGACAAATGTTCTATTCTCTATATTCGTGCATTCCGGAGTCACCTAGTGCAG | 8920 fluorescence intensity (a.u.) |
| CCCGACCTCTACCACGCCCTCGCCGCCGTCGCCGCCGCCGCGGAGTCACCTAGTGCAG | 11700 fluorescence intensity (a.u.) |
| GTATCATGTCCCTTGTGATCTTTATTACTTCTACTTCGATCGGAGTCACCTAGTGCAG | 8560 fluorescence intensity (a.u.) |
| GTTTTCGAATCTAACTTTAACCTTTATCAACTCCCACCCTCGGAGTCACCTAGTGCAG | 8020 fluorescence intensity (a.u.) |
| CTGATGGCACAGCTCGGTCCTTCTCGGCCGCCTTCGTGTTCGGAGTCACCTAGTGCAG | 8810 fluorescence intensity (a.u.) |
| CCATCCGATTCCCGATCCCACCACCACCCGCCGCTTTAATCGGAGTCACCTAGTGCAG | 11400 fluorescence intensity (a.u.) |
| GATTATTTCTACTTATATATCTCTCGATCTTCACAAATTACGGAGTCACCTAGTGCAG | 8320 fluorescence intensity (a.u.) |
| GCATCATCGTGGTGTCGTCTCTTCCACGTCAACCGTATTACGGAGTCACCTAGTGCAG | 9420 fluorescence intensity (a.u.) |
| ATCGAACGCTTTTTTTTATATAATTAAAACCTTCATTCTACGGAGTCACCTAGTGCAG | 8130 fluorescence intensity (a.u.) |
| TTTTATACTTACATTCCTATCAAAATTCTGCGTTTTTCCTCGGAGTCACCTAGTGCAG | 8210 fluorescence intensity (a.u.) |
| CATGTGTTTGATTTCCTGTTTATATTTTGTTCAGAGTTTCCGGAGTCACCTAGTGCAG | 11700 fluorescence intensity (a.u.) |
| CTTGGATTTGGGTGTTTGTAAATGGCATTTCTTGGATTTTCGGAGTCACCTAGTGCAG | 8570 fluorescence intensity (a.u.) |
| GCTGCAAATAATCGACTTTCTCTCTCTCTAGTCTCTATATCGGAGTCACCTAGTGCAG | 11100 fluorescence intensity (a.u.) |
| TGATGTATTGGGGTTTTTTTATACAGCTGCAATTCCATCGCGGAGTCACCTAGTGCAG | 8060 fluorescence intensity (a.u.) |
| GGTAGGTCTGGATTAATGGTCGTTGTTTTCCAGATTTTAACGGAGTCACCTAGTGCAG | 8340 fluorescence intensity (a.u.) |
| GAGTCTTTCACCATTCTTACCCCGACGCGGCGTCTCCTCCCGGAGTCACCTAGTGCAG | 8080 fluorescence intensity (a.u.) |
| AGAGATTCCCACCCCGCGATTCCCTTGCAGGCCGCCAGATCGGAGTCACCTAGTGCAG | 8060 fluorescence intensity (a.u.) |
| AATCTTCTTTGTCTCTCTTGTGCATGTTCTTTGTTTGAATCGGAGTCACCTAGTGCAG | 11000 fluorescence intensity (a.u.) |
| GTTTGACCATTTATCTTATTCAAAAAATTTTGGATTATTACGGAGTCACCTAGTGCAG | 8520 fluorescence intensity (a.u.) |
| GCATTACAAATCTTCTTCGATTCGAATTCAGTACAAATTTCGGAGTCACCTAGTGCAG | 8340 fluorescence intensity (a.u.) |

Exported bar-delimited: entries from further up.
Sequence | binding signal
CTCAGGTCCCATCTGTCAGTCTCTCTTCAGCTTGCCATATCGGAGTCACCTAGTGCAG | 10300 fluorescence intensity (a.u.)
AGATCCATTTTTTTCTTTTCTTTTCACCCTAATTCTGAGTCGGAGTCACCTAGTGCAG | 8310 fluorescence intensity (a.u.)
CCATGTTGACAAATGTTCTATTCTCTATATTCGTGCATTCCGGAGTCACCTAGTGCAG | 8920 fluorescence intensity (a.u.)
GCATCATCGTGGTGTCGTCTCTTCCACGTCAACCGTATTACGGAGTCACCTAGTGCAG | 9420 fluorescence intensity (a.u.)

(listing goes on)

| Sequence | binding signal |
| --- | --- |
| TTCCTTTCTGTCTGTGCCGTGTGTTTCCTTTTTATCCTGTCGGAGTCACCTAGTGCAG | 11800 fluorescence intensity (a.u.) |
| TCTGGCTTGTTATGATTGTGCCAGTAGCGTCCTATCCTACCGGAGTCACCTAGTGCAG | 8960 fluorescence intensity (a.u.) |
| TCTGGTACGTCATCCGTGTATGTGTTGGTTTTTAACCGTACGGAGTCACCTAGTGCAG | 10900 fluorescence intensity (a.u.) |
| ATTTTTGAACATTTTATCTCTGCCATATCATGCTATTTCACGGAGTCACCTAGTGCAG | 9220 fluorescence intensity (a.u.) |
| AGAGGACCCAGCATCACATAATAGTAGTCTGCGTAATAATCGGAGTCACCTAGTGCAG | 9270 fluorescence intensity (a.u.) |
| GAGTAGTAAGTTATATCCCTCAACCATTTCACTTCACACACGGAGTCACCTAGTGCAG | 9600 fluorescence intensity (a.u.) |
| TCTCTCTACCATCTCTGTCGTCCAACCTCTTAGTTTCCTGCGGAGTCACCTAGTGCAG | 11600 fluorescence intensity (a.u.) |
| CTCCCATTTGCGCAGCATTCCTTCGTGGCTTGGTGGTGTACGGAGTCACCTAGTGCAG | 8530 fluorescence intensity (a.u.) |
| CCCATCTCCCGTTGCATTATCCTCTCTTTTCTTGATTTCCCGGAGTCACCTAGTGCAG | 9090 fluorescence intensity (a.u.) |
| CGGGGTTTCACTTGGTTTTAATTGTTCCTGTGCTGCGTCGCGGAGTCACCTAGTGCAG | 18700 fluorescence intensity (a.u.) |
| CACACCCACCCACACACCACTCACTGACATGCGGGCCCCACGGAGTCACCTAGTGCAG | 12800 fluorescence intensity (a.u.) |
| ACCTACTACATTCATGAGTTGCACATTTTGCATATCTTTTCGGAGTCACCTAGTGCAG | 8580 fluorescence intensity (a.u.) |
| AACGCCGCCTCCAGCTTCTCCATGATCGCCGGCGCCAGCGCGGAGTCACCTAGTGCAG | 8670 fluorescence intensity (a.u.) |
| TGACCAAATTTTCATCCTTCCGTTACTATCTGCGGATCTTCGGAGTCACCTAGTGCAG | 10100 fluorescence intensity (a.u.) |
| CATATTTCTCATCGTTTTTATTCTTAGTTGCTATATGTAGCGGAGTCACCTAGTGCAG | 9050 fluorescence intensity (a.u.) |
| CCCTCCTTGCACATTTTAGTACTAATTCGCCTACGACTTCCGGAGTCACCTAGTGCAG | 8410 fluorescence intensity (a.u.) |
| TTACGTTTTTCTGGTGGGTTTTGTGCTTTTTCAGAGTACGCGGAGTCACCTAGTGCAG | 11800 fluorescence intensity (a.u.) |
| AGCAATGACTTTTATACAACACATGCCAATCCATTTTCCCCGGAGTCACCTAGTGCAG | 9160 fluorescence intensity (a.u.) |
| AACTTCCACTGAACACATGAACCGAAGCCCACACTGTCCCCGGAGTCACCTAGTGCAG | 9030 fluorescence intensity (a.u.) |
| CACATCTCTCGCATCCCAATCCGCCACAGCACTCTACATGCGGAGTCACCTAGTGCAG | 9860 fluorescence intensity (a.u.) |
| AATATTTATCATTTATTTTCGTTTTTTTAGTATGTGTTAGCGGAGTCACCTAGTGCAG | 8320 fluorescence intensity (a.u.) |
| ACACTTTTGTCTCGAATTTGAATTCACCATCTGCACCGATCGGAGTCACCTAGTGCAG | 8030 fluorescence intensity (a.u.) |
| TATTCTCGTCAACCTATGTTTACAAAGCTTGAAATCTCAACGGAGTCACCTAGTGCAG | 9040 fluorescence intensity (a.u.) |
| ACCTCGTCCTCTGCTGATTTCAACCCATCGTCGCTCGATCCGGAGTCACCTAGTGCAG | 10300 fluorescence intensity (a.u.) |
| CAACTAATCATCAGCCTCTTCGATCTCCTTAATTTGTTTCCGGAGTCACCTAGTGCAG | 10300 fluorescence intensity (a.u.) |
| GCTCCGTCTTCCTGCTCCAGCCGCTCGCCATAGCCCACTGCGGAGTCACCTAGTGCAG | 11100 fluorescence intensity (a.u.) |
| CTATGATTATTAGTCAAAAGCTACCAAGTTTGATTTTCCTCGGAGTCACCTAGTGCAG | 8360 fluorescence intensity (a.u.) |
